Test results: PubChem BioAssay AID2685 (National Center for Advancing Translational Sciences (NCATS), 2010)
The other results are listed elsewhere or left out. Shown are side measurements of this screen, not its main read-out; they come without a call. Compounds called inactive in the main read-out are mostly missing here. Words in brackets tell the shape of the fitted curve; partial curves, single points and poor fits give uncertain potencies.

Assay: qHTS Assay for Lipid Storage Modulators in Drosophila S3 Cells;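 on cell number change: cells counted by Cell Tracker Red CMTPX staining in the red channel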
Conditions: BODIPY lipid droplet fluorescence, 18-24 h; for cell number change: measured here: cell count max response, cells fed with added oleic acid
In short: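 Drosophila S3 cells got compounds at several concentrations plus oleic acid (400 uM solution). Laser-scanning cytometry with 488 nm excitation read lipid droplets at 500-530 nm and cells at 575-640 nm. Percent activity was relative to 20 uM Triacsin C.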

[1] = measured here: lipid fluorescence (Fed channel) AC50, cells fed with added oleic acid
[2] = measured here: cell number channel AC50, cells fed with added oleic acid

Structure (SMILES) | AC50 [1] | cell number change | AC50 [2]
CCCc1nc(SCC(=O)N2c3ccccc3CC2C)c2c(C)c(C)sc2n1 (centres undefined) | 4.11 µM [rising, full curve] |  | 
CCN(CC)CC(O)Cn1c(-c2ccccc2Cl)nc2ccccc21 (centres undefined) | 0.13 µM [rising, full curve, poor fit] | -6.08% | 
COC(=O)CC1(C(=O)OC)Oc2ccc(Br)cc2C(=O)N1c1cc(Cl)cc(Cl)c1 (centres undefined) |  | -3.23% | 0.00461 µM [falling, full curve, poor fit]
N#Cc1ccc(-n2c(-c3ccccc3)nnc2-c2ccccc2)cc1C#N | 0.0517 µM [falling, full curve] | -25.9% | 
CC1(C)CC(=O)C/C(=N/NC(=O)CCCOc2ccc(Cl)cc2Cl)C1 | 0.411 µM [falling, full curve, poor fit] | 1.24% | 
O=C(NCC(=O)N(c1cnc2ccccc2c1)C(C(=O)NC1CCCC1)c1ccncc1)c1ccco1 (centres undefined) | 18.4 µM [rising, partial curve, poor fit] | 19.1% | 
CCOc1ccccc1NC(=O)COC(=O)CC(C)(C)CC1=NS(=O)(=O)c2ccccc2N1 | 14.6 µM [falling, partial curve, poor fit] | 15.2% | 6.51 µM [falling, single point]
COc1ccc(C(=O)NC(=S)Nc2ccc(NC(=O)c3ccco3)cc2)cc1[N+](=O)[O-] | 2.31 µM [rising, partial curve] | -20.3% | 
Cc1nc2ccccc2c2oc(C(=O)Nc3ccc4c(c3)OCCO4)cc12 |  | 0.0697% | 
Nc1nc(CSC(=S)N2CCN(c3ccccc3)CC2)nc(Nc2ccc(F)cc2)n1 | 29.1 µM [falling, single point] | 31.9% | 
CN(Cc1ccc(Cl)s1)C(=O)CN1C(=O)N(C)C2(CCCCC2)C1=O |  | 1.82% | 
COc1ccccc1CNS(=O)(=O)c1ccc(-n2cnnn2)c(C)c1 | 6.51 µM [falling, partial curve] | 10.3% | 
COc1ccc(CCN2C(=O)c3[nH]nc(-c4ccccc4O)c3C2c2cccc(O)c2)cc1OC (centres undefined) | 0.291 µM [rising, full curve, poor fit] | 0.753% | 
CC(=O)c1ccc(NC(=O)C2CCCN2S(=O)(=O)c2cccs2)cc1 (centres undefined) |  | 20.1% | 
O=[N+]([O-])c1ccc2nc(NCCCO)nc(-c3ccccc3)c2c1 | 29.1 µM [rising, single point] | 31.8% | 23.1 µM [rising, single point]
CCN(C(=O)COC(=O)c1cccs1)c1c(N)n(Cc2ccccc2)c(=O)[nH]c1=O | 0.0731 µM [falling, full curve, poor fit] | 2.09% | 
CCCCn1c(N)c(N(CC(C)C)C(=O)CSc2nnc(C)n2-c2ccc(OC)cc2)c(=O)[nH]c1=O | 6.51 µM [falling, single point] | 3.01% | 1.46 µM [falling, partial curve]
Cc1ncoc1C(=O)N1CCCC(C(=O)c2ccc(Oc3ccccc3)cc2)C1 (centres undefined) | 11.6 µM [falling, partial curve, poor fit] | -38.4% | 16.4 µM [falling, partial curve]
OCC[C@@H]1C[C@@H](O)[C@H](O)[C@]2(Cc3ccccc3CCO2)O1 | 29.1 µM [rising, single point] | 8.68% | 

Structure (SMILES) | AC50 [1] | cell number change | AC50 [2]
Cc1ccc(S(=O)(=O)Nc2nc3ccccc3nc2Nc2cccc(S(=O)(=O)N3CCCC3)c2)cc1 | 6.51 µM [falling, single point] |  | 1.84 µM [falling, partial curve]
COc1cc(S(=O)(=O)N(Cc2cccs2)CC2CCCO2)ccc1-n1cnnn1 (centres undefined) | 2.31 µM [falling, partial curve] | 1.41% | 
CCN(C(=O)Cn1c(=O)oc2ccccc21)c1c(N)n(Cc2ccccc2)c(=O)[nH]c1=O |  | -10.2% | 
Cc1c(C(=O)OC(C)C)sc(NC(=O)C2CCCO2)c1C(=O)OC(C)C (centres undefined) | 0.259 µM [rising, full curve, poor fit] | -3.71% | 6.51 µM [rising, single point]
Cc1cc(=O)oc2c(CN3CCCC3)c(O)c(Cl)cc12 | 29.1 µM [rising, single point] | -40.3% | 
COc1ccccc1NC(=S)N1CCN(c2cccc(C)c2C)CC1 | 16.4 µM [falling, single point] | -38.1% | 3.66 µM [falling, single point]
CCNC(=O)C12CCC(C)(C(=O)O1)C2(C)C (centres undefined) | 0.651 µM [falling, single point] | 9.01% | 
CCn1cc(S(=O)(=O)N2CCc3ccccc3C2)cn1 |  | 24.6% | 
COc1cccc(N(CC(=O)NC2CCCCC2)C(=O)c2snc(C(N)=O)c2N)c1 |  | 6.96% | 
O=C(Cn1cnc2ccccc2c1=O)Nc1cccc(S(=O)(=O)N2CCCCC2)c1 |  | -5.73% | 
CCOC(=O)c1nn(-c2ccccc2)c(=O)cc1OCC(=O)Nc1cc(C)ccc1C | 0.00651 µM [falling, full curve, poor fit] | -75% | 9.2 µM [falling, partial curve, poor fit]
COc1ccc(-n2c(C)c(C)c3c(N)ncnc32)cc1 |  | -9.27% | 
Cn1c(SCC(=O)c2ccccc2)nc2cccnc21 | 29.1 µM [falling, single point] | -30% | 0.103 µM [falling, full curve, poor fit]
Cc1cccc(/C=N/NC(=O)Cn2nc(C)cc2C)n1 |  | -27.8% | 0.00461 µM [falling, full curve, poor fit]
O=c1[nH]c(CN2CCN(S(=O)(=O)c3ccc4ccccc4c3)CC2)nc2ccccc12 | 0.731 µM [falling, full curve] | -13.5% | 
Cc1ccc(-n2ccc(=O)c(C(=O)Nc3ccc(S(=O)(=O)N4CCOCC4)cc3)n2)cc1 | 2.06 µM [rising, full curve, poor fit] |  | 
COC(=O)c1ccc(NC(=S)N2CCN(Cc3ccccc3)CC2)cc1 | 2.31 µM [rising, full curve, poor fit] | -10.7% | 
Cc1csc(NC(=O)Nc2ccc(Cl)cc2)n1 | 29.1 µM [falling, single point] | -17.4% | 
CCc1cc2c(=O)nc3n(c2s1)Cc1ccccc1/C3=C(/O)c1cccc([N+](=O)[O-])c1 |  | -1.95% | 

Structure (SMILES) | AC50 [1] | cell number change | AC50 [2]
O=C(CCCN1C(=O)/C(=C/c2cccc(Br)c2)SC1=S)Nc1ccccn1 |  |  | 6.51 µM [rising, single point]
Cc1nc(NC(C)c2ccccc2)c2c3c(sc2n1)CCC3 (centres undefined) | 2.06 µM [rising, partial curve] | 23.9% | 0.411 µM [rising, single point]
O=C(O)CC(NC(=O)/C(=C/c1ccccc1)NC(=O)c1ccccc1)c1ccccc1 (centres undefined) | 29.1 µM [rising, single point] | -4.48% | 
CC(C)c1ccc(NC(=O)COC(=O)CCC(=O)c2cccs2)cc1 | 0.259 µM [rising, partial curve, poor fit] | 16.5% | 
O=C(c1cc2c(=O)n3ccccc3nc2s1)N1CCc2ccccc2C1 | 6.51 µM [falling, single point] | 51.2% | 29.1 µM [rising, single point]
CC(C)CCN1C(Nc2ccccc2)=NC[C@@H]1C | 29.1 µM [rising, partial curve, poor fit] | 26.3% | 
CCN(CC)CCOC(=O)c1ccc(NC(=O)/C=C/c2cccs2)cc1 | 32.6 µM [rising, single point] | -10.8% | 
CC1CCCC(C)N1CCNC(=O)Cn1nc(-c2ccccc2)ccc1=O (centres undefined) | 6.51 µM [falling, partial curve, poor fit] | 42.6% | 4.61 µM [falling, partial curve, poor fit]
O=c1c(/C=N/O)coc2ccc3ccccc3c12 | 16.4 µM [rising, partial curve] | 40% | 6.51 µM [rising, partial curve]
Cc1cccc(N(CC(=O)NC2CCCC2)C(=O)c2nsc(Cl)c2Cl)c1C | 13 µM [falling, partial curve] | -29% | 
O=C(COc1ccccc1Cl)NC(=O)NC1CCCCC1 |  | 62.6% | 18.4 µM [rising, partial curve]
Nc1ccc2nc(-c3cccc(-c4nc5ccc(N)cc5[nH]4)c3)[nH]c2c1 | 29.1 µM [rising, single point] | -9.91% | 
CSCC[C@H](NC(=O)[C@H](Cc1ccccc1)n1c(=O)[nH]c2ccccc2c1=O)C(=O)N1CCC(C(=O)O)CC1 | 0.13 µM [rising, full curve, poor fit] | 5.5% | 
CCCCn1c(NCc2ccncc2)nc2ccccc21 |  | 38.8% | 
CCc1ccccc1Nc1nn2c(=O)c3ccc(C(=O)NCc4ccccn4)cc3nc2s1 | 6.51 µM [falling, single point] | -36.1% | 2.31 µM [falling, full curve]
CSc1cccc(NC(=S)NC(=O)CCc2ccccc2)c1 | 2.91 µM [rising, full curve] | 45.7% | 2.31 µM [rising, full curve]
CCN(CC(=O)Nc1ccc2c(c1)OCCO2)C(=O)c1cccc(S(=O)(=O)N2CCOCC2)c1 |  | 8.28% | 
CNC(=O)CN1C(=O)COc2ccc(S(=O)(=O)N3CCCCCC3)cc21 | 6.51 µM [falling, single point] | -2.28% | 
O=C(CCn1c(=S)[nH]c2ccccc2c1=O)NCC1CCCO1 (centres undefined) | 6.51 µM [falling, single point] |  | 0.731 µM [falling, full curve, poor fit]

Grouped by structure, those above with a COOH group (2)
Structure (SMILES) | AC50 [1] | cell number change | AC50 [2]
O=C(O)CC(NC(=O)/C(=C/c1ccccc1)NC(=O)c1ccccc1)c1ccccc1 (centres undefined) | 29.1 µM [rising, single point] | -4.48% | 
CSCC[C@H](NC(=O)[C@H](Cc1ccccc1)n1c(=O)[nH]c2ccccc2c1=O)C(=O)N1CCC(C(=O)O)CC1 | 0.13 µM [rising, full curve, poor fit] | 5.5% | 
